Assay results: patent publication US8895035B2, “Alkoxyimino derivative and pest control agent” (Kumiai Chemical Industry Co., Ltd, priority 2010, dated 2014)
Some entries share one result that the patent states for a list of compounds. At least one structure is not confirmed: it was looked up by name or label, or the drawing left a doubt.

Assays:
[1] = tested on: Aphis gossipii Glover (cotton aphid, melon aphid); experiment: Insecticidal action test for Aphis gossipii Glover (seedling immersion); type: in vivo; settings: 500 ppm active ingredient; cucumber seedlings with hatchlings immersed; 25° C.; after 3 days
[2] = tested on: Nilaparvata lugens Stál (brown rice planthopper); experiment: Insecticidal action test for Nilaparvata lugens Stál (immersed sprouting rice); type: in vivo; settings: 500 ppm active ingredient; sprouting unhulled rice immersed; 3-age larvae; 25° C.; after 6 days

CON=C(C(=NOCC1CC1(Cl)Cl)C(N)=O)n1cncn1 (stereo not drawn) [II-333]
insect mortality [1]: ≥ 90% | insect mortality [2]: ≥ 90%

CON=C(C(=NOCCC(F)(F)F)C(N)=O)n1cncn1 [II-335]
insect mortality [1]: ≥ 90% | insect mortality [2]: ≥ 90%

CON=C(C(C#N)=NOCc1cccnc1)n1cncn1 [II-338]
insect mortality [1]: ≥ 90% | insect mortality [2]: ≥ 90%

CON=C(C(C#N)=NOCc1ccsc1)n1cncn1 [II-340]
insect mortality [1]: ≥ 90% | insect mortality [2]: ≥ 90%

CON=C(C(=NOCC1(C#N)CC1)C(N)=O)n1cncn1 [II-343]
insect mortality [1]: ≥ 90% | insect mortality [2]: ≥ 90%

CON=C(C(C#N)=NOC(CF)CF)n1cncn1 [II-344]
insect mortality [1]: ≥ 90% | insect mortality [2]: ≥ 90%

CON=C(C(=NOC(CF)CF)C(N)=O)n1cncn1 [II-345]
insect mortality [1]: ≥ 90% | insect mortality [2]: ≥ 90%

CON=C(C(C#N)=NOCC(C)(C(F)(F)F)C(F)(F)F)n1cncn1 [II-349]
insect mortality [1]: ≥ 90% | insect mortality [2]: ≥ 90%

CON=C(C(C#N)=NOCC(C)(C(F)(F)F)C(F)(F)F)n1ccnc1 [II-351]
insect mortality [1]: ≥ 90% | insect mortality [2]: ≥ 90%

CON=C(C(=NOCC(C)(C(F)(F)F)C(F)(F)F)C(N)=O)n1ccnc1 [II-352]
insect mortality [1]: ≥ 90% | insect mortality [2]: ≥ 90%

CON=C(C(=NOC[Si](C)(C)C)C(N)=O)n1cncn1 [II-356]
insect mortality [1]: ≥ 90% | insect mortality [2]: ≥ 90%

CON=C(C(C#N)=NOCCOCC(F)(F)F)n1cncn1 [II-357]
insect mortality [1]: ≥ 90% | insect mortality [2]: ≥ 90%

CON=C(C(C#N)=NOC(C)C(F)(F)F)n1cncn1 (stereo not drawn) [II-359]
insect mortality [1]: ≥ 90% | insect mortality [2]: ≥ 90%

CON=C(C(=NOC(C)C(F)(F)F)C(N)=O)n1cncn1 (stereo not drawn) [II-360]
insect mortality [1]: ≥ 90% | insect mortality [2]: ≥ 90%

CON=C(C(C#N)=NOCCOC(C)C)n1cncn1 [II-361]
insect mortality [1]: ≥ 90% | insect mortality [2]: ≥ 90%

CON=C(C(C#N)=NOCc1cccc(F)c1)n1cncn1 [II-365]
insect mortality [1]: ≥ 90% | insect mortality [2]: ≥ 90%

CON=C(C(C#N)=NOCc1ccco1)n1cncn1 [II-369]
insect mortality [1]: ≥ 90% | insect mortality [2]: ≥ 90%

CON=C(C(C#N)=NOCC(F)(F)C(F)(F)F)n1ccnc1 [II-373]
insect mortality [1]: ≥ 90% | insect mortality [2]: ≥ 90%

CCOCCON=C(C#N)C(=NOC)n1cncn1 [II-377]
insect mortality [1]: ≥ 90% | insect mortality [2]: ≥ 90%

CCOCCON=C(C(N)=O)C(=NOC)n1cncn1 [II-378]
insect mortality [1]: ≥ 90% | insect mortality [2]: ≥ 90%

CON=C(C(C#N)=NOCC(F)(F)C(F)(F)C(F)(F)C(F)F)n1cncn1 [II-379]
insect mortality [1]: ≥ 90% | insect mortality [2]: ≥ 90%

CCON=C(C#N)C(=NOCC)n1cncn1 [III-48]
insect mortality [1]: ≥ 90% | insect mortality [2]: ≥ 90%

CCON=C(C(C#N)=NOC(C)C)n1cncn1 [III-50]
insect mortality [1]: ≥ 90% | insect mortality [2]: ≥ 90%

CCON=C(C(C#N)=NOC(C)CC)n1cncn1 (stereo not drawn) [III-53]
insect mortality [1]: ≥ 90% | insect mortality [2]: ≥ 90%

CCON=C(C(C#N)=NOC(C)(C)C)n1cncn1 [III-54]
insect mortality [1]: ≥ 90% | insect mortality [2]: ≥ 90%

CCCCCON=C(C#N)C(=NOCC)n1cncn1 [III-55]
insect mortality [1]: ≥ 90% | insect mortality [2]: ≥ 90%

CCON=C(C(C#N)=NOCCC(C)C)n1cncn1 [III-56]
insect mortality [1]: ≥ 90% | insect mortality [2]: ≥ 90%

CCON=C(C(C#N)=NOCC(C)(C)C)n1cncn1 [III-57]
insect mortality [1]: ≥ 90% | insect mortality [2]: ≥ 90%

CCCC(C)ON=C(C#N)C(=NOCC)n1cncn1 (stereo not drawn) [III-58]
insect mortality [1]: ≥ 90% | insect mortality [2]: ≥ 90%

CCON=C(C(C#N)=NOC(CC)CC)n1cncn1 [III-59]
insect mortality [1]: ≥ 90% | insect mortality [2]: ≥ 90%

CCON=C(C(C#N)=NOC1CCCC1)n1cncn1 [III-62]
insect mortality [1]: ≥ 90% | insect mortality [2]: ≥ 90%

CCON=C(C(C#N)=NOCC1CCC1)n1cncn1 [III-65]
insect mortality [1]: ≥ 90% | insect mortality [2]: ≥ 90%

CCON=C(C(C#N)=NOCC1CCCC1)n1cncn1 [III-66]
insect mortality [1]: ≥ 90% | insect mortality [2]: ≥ 90%

C=CCON=C(C#N)C(=NOCC)n1cncn1 [III-67]
insect mortality [1]: ≥ 90% | insect mortality [2]: ≥ 90%

CCON=C(C(=NOC)C(N)=O)n1cncn1 [III-70]
insect mortality [1]: ≥ 90% | insect mortality [2]: ≥ 90%

CCON=C(C(N)=O)C(=NOCC)n1cncn1 [III-71]
insect mortality [1]: ≥ 90% | insect mortality [2]: ≥ 90%

CCCON=C(C(N)=O)C(=NOCC)n1cncn1 [III-72]
insect mortality [1]: ≥ 90% | insect mortality [2]: ≥ 90%

CCON=C(C(=NOC(C)CC)C(N)=O)n1cncn1 (stereo not drawn) [III-76]
insect mortality [1]: ≥ 90% | insect mortality [2]: ≥ 90%

CCON=C(C(=NOC(C)(C)C)C(N)=O)n1cncn1 [III-77]
insect mortality [1]: ≥ 90% | insect mortality [2]: ≥ 90%

CCON=C(C(=NOCCC(C)C)C(N)=O)n1cncn1 [III-79]
insect mortality [1]: ≥ 90% | insect mortality [2]: ≥ 90%

CCON=C(C(=NOCC(C)(C)C)C(N)=O)n1cncn1 [III-80]
insect mortality [1]: ≥ 90% | insect mortality [2]: ≥ 90%

CCCC(C)ON=C(C(N)=O)C(=NOCC)n1cncn1 (stereo not drawn) [III-81]
insect mortality [1]: ≥ 90% | insect mortality [2]: ≥ 90%

CCON=C(C(=NOC(CC)CC)C(N)=O)n1cncn1 [III-82]
insect mortality [1]: ≥ 90% | insect mortality [2]: ≥ 90%

CCCCCCON=C(C(N)=O)C(=NOCC)n1cncn1 [III-83]
insect mortality [1]: ≥ 90% | insect mortality [2]: ≥ 90%

CCON=C(C(=NOCCC(C)(C)C)C(N)=O)n1cncn1 [III-84]
insect mortality [1]: ≥ 90% | insect mortality [2]: ≥ 90%

CCON=C(C(=NOC1CCCC1)C(N)=O)n1cncn1 [III-85]
insect mortality [1]: ≥ 90% | insect mortality [2]: ≥ 90%

CCON=C(C(=NOCC1CCC1)C(N)=O)n1cncn1 [III-88]
insect mortality [1]: ≥ 90% | insect mortality [2]: ≥ 90%

C=CCON=C(C(N)=O)C(=NOCC)n1cncn1 [III-90]
insect mortality [1]: ≥ 90% | insect mortality [2]: ≥ 90%

CCCCCCCCON=C(C#N)C(=NOCC)n1cncn1 [III-233]
insect mortality [1]: ≥ 90% | insect mortality [2]: ≥ 90%

CCON=C(C(C#N)=NOCC(F)(F)F)n1cncn1 [III-238]
insect mortality [1]: ≥ 90% | insect mortality [2]: ≥ 90%

CCON=C(C(=NOCC(F)(F)F)C(N)=O)n1cncn1 [III-239]
insect mortality [1]: ≥ 90% | insect mortality [2]: ≥ 90%

CCON=C(C(C#N)=NOCc1ccccc1)n1cncn1 [III-242]
insect mortality [1]: ≥ 90% | insect mortality [2]: ≥ 90%

CCON=C(C(C#N)=NOCCOC)n1cncn1 [III-262]
insect mortality [1]: ≥ 90% | insect mortality [2]: ≥ 90%

CCON=C(C(C#N)=NOC/C=C/Cl)n1cncn1 [III-269]
insect mortality [1]: ≥ 90% | insect mortality [2]: ≥ 90%

CCON=C(C(C#N)=NOCC(C)CC)n1cncn1 (stereo not drawn) [III-272]
insect mortality [1]: ≥ 90% | insect mortality [2]: ≥ 90%

CCON=C(C(=NOCC(C)CC)C(N)=O)n1cncn1 (stereo not drawn) [III-273]
insect mortality [1]: ≥ 90% | insect mortality [2]: ≥ 90%

CCON=C(C(C#N)=NOCCCOC)n1cncn1 [III-279]
insect mortality [1]: ≥ 90% | insect mortality [2]: ≥ 90%

CCON=C(C(=NOCCCOC)C(N)=O)n1cncn1 [III-280]
insect mortality [1]: ≥ 90% | insect mortality [2]: ≥ 90%

CCON=C(C(=NOCC1CC1C)C(N)=O)n1cncn1 (stereo not drawn) [III-282]
insect mortality [1]: ≥ 90% | insect mortality [2]: ≥ 90%

CCON=C(C(=NOCC1CC1(Cl)Cl)C(N)=O)n1cncn1 (stereo not drawn) [III-284]
insect mortality [1]: ≥ 90% | insect mortality [2]: ≥ 90%

CCON=C(C(=NOCC1CC1(F)F)C(N)=O)n1cncn1 (stereo not drawn) [III-288]
insect mortality [1]: ≥ 90% | insect mortality [2]: ≥ 90%

CCON=C(C(C#N)=NOC(C)C1CC1)n1cncn1 (stereo not drawn) [III-289]
insect mortality [1]: ≥ 90% | insect mortality [2]: ≥ 90%

CCON=C(C(=NOC(C)C1CC1)C(N)=O)n1cncn1 (stereo not drawn) [III-290]
insect mortality [1]: ≥ 90% | insect mortality [2]: ≥ 90%

CCON=C(C(C#N)=NOCC(C)(C)CC)n1cncn1 [III-295]
insect mortality [1]: ≥ 90% | insect mortality [2]: ≥ 90%

CCON=C(C(=NOCC(C)(C)CC)C(N)=O)n1cncn1 [III-296]
insect mortality [1]: ≥ 90% | insect mortality [2]: ≥ 90%

CCON=C(C(C#N)=NOCC(F)(F)C(F)(F)C(F)(F)F)n1cncn1 [III-297]
insect mortality [1]: ≥ 90% | insect mortality [2]: ≥ 90%

CCON=C(C(=NOCC(F)(F)C(F)(F)C(F)(F)F)C(N)=O)n1cncn1 [III-298]
insect mortality [1]: ≥ 90% | insect mortality [2]: ≥ 90%

CCON=C(C(=NOCC(C)(C)C#N)C(N)=O)n1cncn1 [III-301]
insect mortality [1]: ≥ 90% | insect mortality [2]: ≥ 90%

CCON=C(C(C#N)=NOCC(C)(C)CCl)n1cncn1 [III-302]
insect mortality [1]: ≥ 90% | insect mortality [2]: ≥ 90%

CCON=C(C(=NOCC(C)(C)CCl)C(N)=O)n1cncn1 [III-303]
insect mortality [1]: ≥ 90% | insect mortality [2]: ≥ 90%

CCON=C(C(=NOCC(F)(F)C(F)(F)F)C(N)=O)n1cncn1 [III-305]
insect mortality [1]: ≥ 90% | insect mortality [2]: ≥ 90%

CCCCON=C(C(=N)OC)C(=NOCC)n1cncn1 [III-306]
insect mortality [1]: ≥ 90% | insect mortality [2]: ≥ 90%

CCCCON=C(C(=O)OC)C(=NOCC)n1cncn1 [III-307]
insect mortality [1]: ≥ 90% | insect mortality [2]: ≥ 90%

CCON=C(C(C#N)=NOCC(F)(F)C(F)(F)C(F)(F)C(F)F)n1cncn1 [III-308]
insect mortality [1]: ≥ 90% | insect mortality [2]: ≥ 90%

CCON=C(C(=NOCC(F)(F)C(F)(F)C(F)(F)C(F)F)C(N)=O)n1cncn1 [III-309]
insect mortality [1]: ≥ 90% | insect mortality [2]: ≥ 90%
